Consider 2 molecules from paper PMC9191875.

The chains behind the UniProt entries cited, without tags or fusion partners.
UniProt Q78YZ6: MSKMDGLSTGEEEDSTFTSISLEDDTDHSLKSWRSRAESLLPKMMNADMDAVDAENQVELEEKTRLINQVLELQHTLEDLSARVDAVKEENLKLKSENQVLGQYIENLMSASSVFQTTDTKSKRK

Results are given in words; binding and its absence hold for the method and conditions named. Binding seen in cells or lysates may run through a third protein. Some entries that bind do so weakly or less than the wild type.

This assay deals with T1, fasciculation and elongation protein zeta-1 (FEZ1) (mouse (endogenous in HT22)) (UniProt Q8K0X8).
T1 sequence: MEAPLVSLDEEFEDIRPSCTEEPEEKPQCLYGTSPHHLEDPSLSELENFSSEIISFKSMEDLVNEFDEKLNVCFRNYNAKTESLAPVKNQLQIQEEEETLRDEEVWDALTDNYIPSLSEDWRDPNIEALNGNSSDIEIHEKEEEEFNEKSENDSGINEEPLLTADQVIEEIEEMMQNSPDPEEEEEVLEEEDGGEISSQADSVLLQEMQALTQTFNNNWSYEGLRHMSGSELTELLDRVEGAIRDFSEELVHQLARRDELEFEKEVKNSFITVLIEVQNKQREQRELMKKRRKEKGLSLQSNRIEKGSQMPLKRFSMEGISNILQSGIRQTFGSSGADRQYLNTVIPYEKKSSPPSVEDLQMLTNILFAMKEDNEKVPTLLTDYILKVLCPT
Put plainly: co-IP; FEZ1 IP antibody added to RIPA lysate of cultured cells, overnight at 4°C; captured on Protein G/A agarose beads, washed 3 times with RIPA buffer; Western blot detection; IgG as negative control.

Turning to “short coiled-coil protein (SCOC) (from UniProt Q78YZ6 1-125)”, the binding result is on record as “binds”.

B1: unc-51 like autophagy activating kinase 1 (ULK1) (protein, UniProt O70405 1-1051)
chain: MEPGRGGVETVGKFEFSRKDLIGHGAFAVVFKGRHREKHDLEVAVKCINKKNLAKSQTLLGKEIKILKELKHENIVALYDFQEMANSVYLVMEYCNGGDLADYLHTMRTLSEDTVRLFLQQIAGAMRLLHSKGIIHRDLKPQNILLSNPGGRRANPSNIRVKIADFGFARYLQSNMMAATLCGSPMYMAPEVIMSQHYDGKADLWSIGTIVYQCLTGKAPFQASSPQDLRLFYEKNKTLVPAIPRETSAPLRQLLLALLQRNHKDRMDFDEFFHHPFLDASTPIKKSPPVPVPSYPSSGSGSSSSSSSASHLASPPSLGEMPQLQKTLTSPADAAGFLQGSRDSGGSSKDSCDTDDFVMVPAQFPGDLVAEAASAKPPPDSLLCSGSSLVASAGLESHGRTPSPSPTCSSSPSPSGRPGPFSSNRYGASVPIPVPTQVHNYQRIEQNLQSPTQQQTARSSAIRRSGSTTPLGFGRASPSPPSHTDGAMLARKLSLGGGRPYTPSPQVGTIPERPSWSRVPSPQGADVRVGRSPRPGSSVPEHSPRTTGLGCRLHSAPNLSDFHVVRPKLPKPPTDPLGATFSPPQTSAPQPCPGLQSCRPLRGSPKLPDFLQRSPLPPILGSPTKAGPSFDFPKTPSSQNLLTLLARQGVVMTPPRNRTLPDLSEASPFHGQQLGSGLRPAEDTRGPFGRSFSTSRITDLLLKAAFGTQASDSGSTDSLQEKPMEIAPSAGFGGTLHPGARGGGASSPAPVVFTVGSPPSGATPPQSTRTRMFSVGSSSSLGSTGSSSARHLVPGACGEAPELSAPGHCCSLADPLAANLEGAVTFEAPDLPEETLMEQEHTETLHSLRFTLAFAQQVLEIAALKGSASEAAGGPEYQLQESVVADQISQLSREWGFAEQLVLYLKVAELLSSGLQTAIDQIRAGKLCLSSTVKQVVRRLNELYKASVVSCQGLSLRLQRFFLDKQRLLDGIHGVTAERLILSHAVQMVQSAALDEMFQHREGCVPRYHKALLLLEGLQHTLTDQADIENIAKCKLCIERRLSALLSGVYA
Turning to B1, the binding entry was “binds”.
